Results are given in words; binding and its absence hold for the method and conditions named. Binding seen in cells or lysates may run through a third protein. Some entries that bind do so weakly or less than the wild type. Tags and fused reporters may be left off the sequences shown.
T1: zinc finger Asp-His-His-Cys-type palmitoyltransferase 15 (ZDHHC15) (human (endogenous in U251 GSCs)) (UniProt Q96MV8)
T1 sequence: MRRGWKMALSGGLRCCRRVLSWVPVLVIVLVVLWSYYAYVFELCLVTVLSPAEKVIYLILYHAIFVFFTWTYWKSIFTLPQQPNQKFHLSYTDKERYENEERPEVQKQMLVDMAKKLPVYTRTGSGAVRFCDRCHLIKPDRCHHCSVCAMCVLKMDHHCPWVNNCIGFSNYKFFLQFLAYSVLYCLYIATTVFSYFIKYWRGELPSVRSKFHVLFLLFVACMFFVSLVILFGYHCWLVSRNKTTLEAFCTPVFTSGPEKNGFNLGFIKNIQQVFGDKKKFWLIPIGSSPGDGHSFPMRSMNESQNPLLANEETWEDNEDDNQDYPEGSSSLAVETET

Chains of the proteins cited; added tags and fusions are not shown. Residues count along the entry.
UniProt Q5UIP0: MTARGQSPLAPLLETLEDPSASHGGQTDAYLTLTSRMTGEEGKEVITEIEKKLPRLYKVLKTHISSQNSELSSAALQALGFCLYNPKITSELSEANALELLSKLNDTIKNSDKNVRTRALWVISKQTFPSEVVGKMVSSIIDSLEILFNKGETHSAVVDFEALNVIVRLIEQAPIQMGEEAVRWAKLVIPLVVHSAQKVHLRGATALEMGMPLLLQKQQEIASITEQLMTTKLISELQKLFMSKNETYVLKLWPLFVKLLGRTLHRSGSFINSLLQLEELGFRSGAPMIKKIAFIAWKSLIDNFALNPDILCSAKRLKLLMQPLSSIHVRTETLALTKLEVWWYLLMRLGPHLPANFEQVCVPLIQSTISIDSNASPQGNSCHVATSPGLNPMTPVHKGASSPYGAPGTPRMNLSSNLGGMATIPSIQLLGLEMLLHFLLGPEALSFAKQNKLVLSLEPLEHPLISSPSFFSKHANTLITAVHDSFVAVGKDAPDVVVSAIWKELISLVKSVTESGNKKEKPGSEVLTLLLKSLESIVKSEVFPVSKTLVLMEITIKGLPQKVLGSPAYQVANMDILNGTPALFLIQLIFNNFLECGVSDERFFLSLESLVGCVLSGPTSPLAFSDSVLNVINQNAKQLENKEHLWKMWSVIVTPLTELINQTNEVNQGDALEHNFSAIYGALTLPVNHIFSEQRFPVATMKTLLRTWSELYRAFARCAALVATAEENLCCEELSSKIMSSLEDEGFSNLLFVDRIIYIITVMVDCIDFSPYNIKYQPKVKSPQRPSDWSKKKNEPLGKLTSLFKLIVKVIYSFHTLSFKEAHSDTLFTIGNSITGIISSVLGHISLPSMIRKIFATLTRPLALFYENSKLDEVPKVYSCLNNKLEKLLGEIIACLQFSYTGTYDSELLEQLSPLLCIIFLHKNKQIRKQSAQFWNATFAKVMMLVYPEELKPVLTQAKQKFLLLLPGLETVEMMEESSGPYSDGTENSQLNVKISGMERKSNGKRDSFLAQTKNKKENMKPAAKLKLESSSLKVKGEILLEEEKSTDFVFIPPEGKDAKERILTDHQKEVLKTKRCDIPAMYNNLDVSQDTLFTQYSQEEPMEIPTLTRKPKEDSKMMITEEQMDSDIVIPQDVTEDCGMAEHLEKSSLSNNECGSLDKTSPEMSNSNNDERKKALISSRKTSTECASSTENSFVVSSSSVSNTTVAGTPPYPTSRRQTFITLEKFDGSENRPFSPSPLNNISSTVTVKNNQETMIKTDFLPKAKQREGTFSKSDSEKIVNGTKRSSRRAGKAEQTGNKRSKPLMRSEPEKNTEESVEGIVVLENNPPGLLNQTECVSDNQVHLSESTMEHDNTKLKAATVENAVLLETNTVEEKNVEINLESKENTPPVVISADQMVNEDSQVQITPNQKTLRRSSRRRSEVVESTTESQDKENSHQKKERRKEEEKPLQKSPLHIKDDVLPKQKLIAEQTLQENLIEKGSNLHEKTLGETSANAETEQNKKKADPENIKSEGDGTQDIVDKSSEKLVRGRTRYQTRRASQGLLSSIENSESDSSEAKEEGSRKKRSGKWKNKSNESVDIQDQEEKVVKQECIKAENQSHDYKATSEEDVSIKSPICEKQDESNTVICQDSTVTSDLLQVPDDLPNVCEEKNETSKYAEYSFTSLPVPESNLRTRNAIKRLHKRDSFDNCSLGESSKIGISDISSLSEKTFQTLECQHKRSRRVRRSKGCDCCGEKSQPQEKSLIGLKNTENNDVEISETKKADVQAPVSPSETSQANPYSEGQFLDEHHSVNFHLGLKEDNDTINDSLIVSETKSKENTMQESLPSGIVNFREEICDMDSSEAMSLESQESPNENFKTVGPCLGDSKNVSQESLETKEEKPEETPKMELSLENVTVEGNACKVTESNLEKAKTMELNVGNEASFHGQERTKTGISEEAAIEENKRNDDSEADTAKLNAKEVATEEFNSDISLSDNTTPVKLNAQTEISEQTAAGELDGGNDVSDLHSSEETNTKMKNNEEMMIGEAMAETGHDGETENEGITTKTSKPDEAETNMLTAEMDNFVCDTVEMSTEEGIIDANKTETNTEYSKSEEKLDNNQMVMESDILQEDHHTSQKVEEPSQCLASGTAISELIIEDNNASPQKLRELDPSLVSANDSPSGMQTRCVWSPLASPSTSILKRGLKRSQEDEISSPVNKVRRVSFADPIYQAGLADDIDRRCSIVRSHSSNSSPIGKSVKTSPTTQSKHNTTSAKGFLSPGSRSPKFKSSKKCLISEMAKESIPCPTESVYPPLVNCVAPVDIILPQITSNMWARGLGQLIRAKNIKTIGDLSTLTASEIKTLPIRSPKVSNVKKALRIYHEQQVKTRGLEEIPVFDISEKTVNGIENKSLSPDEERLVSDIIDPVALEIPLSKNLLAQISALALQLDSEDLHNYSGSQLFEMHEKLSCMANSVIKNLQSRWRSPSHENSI
UniProt P40189, residues 23-918: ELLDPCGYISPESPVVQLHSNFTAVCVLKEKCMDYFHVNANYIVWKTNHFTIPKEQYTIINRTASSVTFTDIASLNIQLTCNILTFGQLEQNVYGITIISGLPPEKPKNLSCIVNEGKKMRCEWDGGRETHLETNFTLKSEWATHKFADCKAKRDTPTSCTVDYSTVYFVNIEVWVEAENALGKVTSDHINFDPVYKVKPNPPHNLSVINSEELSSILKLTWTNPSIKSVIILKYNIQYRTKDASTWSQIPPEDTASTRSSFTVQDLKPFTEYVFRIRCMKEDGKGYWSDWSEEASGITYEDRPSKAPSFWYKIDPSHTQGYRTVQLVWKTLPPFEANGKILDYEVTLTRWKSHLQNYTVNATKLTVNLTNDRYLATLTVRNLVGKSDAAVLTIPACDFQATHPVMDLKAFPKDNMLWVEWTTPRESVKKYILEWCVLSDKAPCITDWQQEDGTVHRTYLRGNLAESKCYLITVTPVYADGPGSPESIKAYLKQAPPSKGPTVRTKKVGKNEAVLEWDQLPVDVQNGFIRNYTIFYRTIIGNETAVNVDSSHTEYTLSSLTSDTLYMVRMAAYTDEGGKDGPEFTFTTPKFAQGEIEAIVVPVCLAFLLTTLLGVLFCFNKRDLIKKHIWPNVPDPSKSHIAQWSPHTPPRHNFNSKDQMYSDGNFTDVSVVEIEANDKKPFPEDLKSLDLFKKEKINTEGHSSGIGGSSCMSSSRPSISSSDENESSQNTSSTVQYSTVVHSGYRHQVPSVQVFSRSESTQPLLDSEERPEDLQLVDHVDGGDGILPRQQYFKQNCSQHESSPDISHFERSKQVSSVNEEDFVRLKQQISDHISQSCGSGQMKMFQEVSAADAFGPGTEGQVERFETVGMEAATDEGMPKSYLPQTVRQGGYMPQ


Biological target: T1, zinc finger Asp-His-His-Cys-type palmitoyltransferase 15 (ZDHHC15) (human (endogenous in U251 GSCs))
Assay: co-IP; U251 GSC lysate (radioimmunoassay buffer with protease inhibitors, 500 ug total protein) immunoprecipitated with agarose fixed anti-ZDHHC15 antibody (1 ug) at 4 °C; immunoblot with anti-GP130, anti-LRP12 and anti-RIF1

Molecule	binding
Rap1 interacting factor 1 (RIF1) (from UniProt Q5UIP0 1-2472)	no binding
glycoprotein 130 (GP130) (from UniProt P40189 23-918) (receptor)	binds
low-density lipoprotein receptor-related protein 12 (LRP12) (protein, UniProt Q9Y561 33-859) EHSENVHISGVSTACGETPEQIRAPSGIITSPGWPSEYPAKINCSWFIRANPGEIITISFQDFDIQGSRRCNLDWLTIETYKNIESYRACGSTIPPPYISSQDHIWIRFHSDDNISRKGFRLAYFSGKSEEPNCACDQFRCGNGKCIPEAWKCNNMDECGDSSDEEICAKEANPPTAAAFQPCAYNQFQCLSRFTKVYTCLPESLKCDGNIDCLDLGDEIDCDVPTCGQWLKYFYGTFNSPNYPDFYPPGSNCTWLIDTGDHRKVILRFTDFKLDGTGYGDYVKIYDGLEENPHKLLRVLTAFDSHAPLTVVSSSGQIRVHFCADKVNAARGFNATYQVDGFCLPWEIPCGGNWGCYTEQQRCDGYWHCPNGRDETNCTMCQKEEFPCSRNGVCYPRSDRCNYQNHCPNGSDEKNCFFCQPGNFHCKNNRCVFESWVCDSQDDCGDGSDEENCPVIVPTRVITAAVIGSLICGLLLVIALGCTCKLYSLRMFERRSFETQLSRVEAELLRREAPPSYGQLIAQGLIPPVEDFPVCSPNQASVLENLRLAVRSQLGFTSVRLPMAGRSSNIWNRIFNFARSRHSGSLALVSADGDEVVPSQSTSREPERNHTHRSLFSVESDDTDTENERRDMAGASGGVAAPLPQKVPPTTAVEATVGACASSSTQSTRGGHADNGRDVTSVEPPSVSPARHQLTSALSRMTQGLRWVRFTLGRSSSLSQNQSPLRQLDNGVSGREDDDDVEMLIPISDGSSDFDVNDCSRPLLDLASDQGQGLRQPYNATNPGVRPSNRDGPCERCGIVHTAQIPDTCLEVTLKNETSDDEALLLC	no binding

— publication PMC7863430
